Results are given in words; binding and its absence hold for the method and conditions named. For part of these data: Binding seen in cells or lysates may run through a third protein. Some entries that bind do so weakly or less than the wild type. For part of these data: Sequences can lack the tags named with a protein.

The target of experiment [1] is T1, PPT1, lysosomal hydrolase of the palmitoyl protein thioesterase family (human (endogenous in HEK293)), P50897.
T1 chain: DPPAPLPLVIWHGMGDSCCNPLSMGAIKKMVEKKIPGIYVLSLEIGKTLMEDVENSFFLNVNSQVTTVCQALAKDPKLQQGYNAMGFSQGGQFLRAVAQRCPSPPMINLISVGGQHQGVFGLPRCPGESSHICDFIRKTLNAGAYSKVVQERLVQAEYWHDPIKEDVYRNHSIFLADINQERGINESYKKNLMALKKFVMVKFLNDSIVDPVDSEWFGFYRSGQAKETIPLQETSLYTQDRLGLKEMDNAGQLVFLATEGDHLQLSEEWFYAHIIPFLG
The experiment in a line: cross-linking; XL-LC-MS/MS: lysosome-enriched fractions (SPIONs) of HEK293 cells, intact and disrupted, 1 mg/mL protein in isolation buffer, 0.25 mM DSSO, 30 min at room temperature; XlinkX, FDR 5 %. The note with it: remark: other sources report otherwise.

The target of experiment [2] is FLOT1 (human (endogenous in HEK293)) (UniProt O75955). The experiment in a line: co-IP; HEK293 lysate (RIPA or 1% NP-40 lysis buffer), 1.6 mg protein with 3 µg antibody overnight at 4 °C, Protein A beads, western blot; control: empty beads.
For experiment [3] the target is unchanged. The experiment in a line: cross-linking; XL-LC-MS/MS: lysosome-enriched fractions (SPIONs) of HEK293 cells, intact and disrupted, 1 mg/mL protein in isolation buffer, 0.25 mM DSSO, 30 min at room temperature; XlinkX, FDR 5 %.
Experiment [4] addresses full-length FLAG-FLOT1 (UniProt O75955). The experiment in a line: cross-linking; XL-LC-MS/MS: early endosome-enriched fractions (SPIONs pulse-chase) of HEK293 cells overexpressing FLOT1-FLAG and FLOT2-FLAG, intact state, 0.25 mM DSSO, 30 min at room temperature.
The target is the same in experiment [5]. The experiment in a line: cross-linking; FLAG-IP eluates of co-transfected WT or Δ100 FLOT1/FLOT2, with and without DSSO cross-linking, SDS-PAGE and western blot. (In general: In western blotting, separated proteins are transferred to a membrane and probed.)
Experiment [6] has the same target. The experiment in a line: native gel or EMSA; BN-PAGE (4–12% gradient, digitonin solubilisation, 4 °C) of FLAG-IP eluates of FLOT1-FLAG/FLOT2-FLAG with and without DSSO cross-linking, western blot. A general note: A gel shift assay detects complexes by their altered migration in electrophoresis.

B1: PPT1, lysosomal hydrolase of the palmitoyl protein thioesterase family, P50897 28-306 (enzyme)
chain: T1 chain
Regarding B1, the binding result in experiment [1] is recorded as “binds”.

B2: FLOT2 (protein, UniProt Q14254 1-428)
chain: MGNCHTVGPNEALVVSGGCCGSDYKQYVFGGWAWAWWCISDTQRISLEIMTLQPRCEDVETAEGVALTVTGVAQVKIMTEKELLAVACEQFLGKNVQDIKNVVLQTLEGHLRSILGTLTVEQIYQDRDQFAKLVREVAAPDVGRMGIEILSFTIKDVYDKVDYLSSLGKTQTAVVQRDADIGVAEAERDAGIREAECKKEMLDVKFMADTKIADSKRAFELQKSAFSEEVNIKTAEAQLAYELQGAREQQKIRQEEIEIEVVQRKKQIAVEAQEILRTDKELIATVRRPAEAEAHRIQQIAEGEKVKQVLLAQAEAEKIRKIGEAEAAVIEAMGKAEAERMKLKAEAYQKYGDAAKMALVLEALPQIAAKIAAPLTKVDEIVVLSGDNSKVTSEVNRLLAELPASVHALTGVDLSKIPLIKKATGVQV
For B2, the binding entry in experiment [2] and in experiment [3] was “binds” in each case.

B3: full-length FLAG-FLOT2 (protein, UniProt Q14254 1-428)
chain: B2 chain
Turning to B3, the binding result in experiment [4], in experiment [5] and in experiment [6] was “binds” each time.

The values above are taken from publication PMC9584938.
